# Source: PubChem BioAssay AID504467 (National Center for Advancing Translational Sciences (NCATS), 2011)
# Screen size: about 330,000 compounds; about 7,700 (2.3%) were called active. The shares of active, inactive and inconclusive entries below differ from those in the screen. The call rests on the fitted dose curve; in most records, active means well fitted inhibition curve with a large enough effect; inconclusive means small, poorly fitted or top-dose-only effect, or effect the other way; inactive means flat fitted curve, though single readings scatter. Potencies of inconclusive entries are doubtful fits and often do not repeat.
# Assay: qHTS screen for small molecules that inhibit ELG1-dependent DNA repair in human embryonic kidney (HEK293T) cells expressing luciferase-tagged ELG1; further: nearly all actives have a fitted effect of over 55% in size
# Details: HEK293T ELG1-luciferase reporter, luminescence, 16 h, DNA damage induced by 5-fluorouridine; activity change, negative = inhibition: at 46.1 µM (top of the series)
# How it was run: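 5-Fluorouridine DNA damage + compound/DMSO, 2,000 cells/well, 16 h, 37 °C/5% CO2. ONE-Glo, 30 min RT, luminescence. Readout = decrease in reporter signal.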
# On the % scale 0 is the no-effect control and ±100 the full control effect; potency means the concentration at half of the fitted maximal effect.
SMILES,Potency,"activity change, negative = inhibition"
CCCS(=O)(=O)Nc1ccc(-c2ccc3nnc(C)n3n2)cc1,"inconclusive: 16.4 µM [activator, partial curve]",
Brc1ccc(-c2csc(-c3ccncc3)n2)cc1,"inconclusive: 14.6 µM [activator, partial curve]",
CCOC(=O)c1nnn(-c2nonc2N)c1CN1CCc2ccccc2C1,,inactive: -1.82%
Cc1cccc(NC(=O)CCCCCN2C(=O)c3ccccc3C2=O)n1,"inconclusive: 20.6 µM [inhibitor, single point]",
Cc1nnc(NC(=O)Cc2ccc(OCc3c(C)noc3C)cc2)s1,"inconclusive: 20.6 µM [activator, single point]",
COc1ccc(NC(=O)C2C3CCC(O3)C2C(=O)O)c(C)c1 (configuration not stated),"inconclusive: 9.2 µM [activator, partial curve, poor fit]",
O=C(CSc1nc2ccccc2[nH]1)c1c[nH]c2ccccc12,"inconclusive: 13 µM [activator, partial curve]",
Cc1c(C(=O)Nc2ccc(S(=O)(=O)Nc3ncccn3)cc2)oc2ccc(F)cc12,"inconclusive: 29.1 µM [activator, partial curve, poor fit]",
COc1ccc(OCc2cc(C(=O)N3CCCN(C(C)=O)CC3)no2)c(Cl)c1,"inconclusive: 16.4 µM [activator, partial curve]",
CC1CCN(C(=O)C2CCN(CCCc3ccccc3)CC2)CC1,,inactive: -14.4%
CC(=O)Nc1ccc(S(=O)(=O)NCCCCNS(=O)(=O)c2ccc(NC(C)=O)cc2)cc1,,inactive: -1.87%
COc1ccc2[nH]c3c(c2c1)CCN1C(=O)C(CC(=O)NCc2ccco2)C[C@H](C(=O)N2CCCCC2)[C@@]31CCc1ccccc1 (some centres not stated),"inconclusive: 20.6 µM [inhibitor, partial curve, poor fit]",
CCN(CC)c1ccc2cc(NC(=O)CCC(=O)O)c(=O)oc2c1,,inactive: -0.327%
CC1(C)CC(C(CCN(Cc2ccccc2)C(=O)c2ccco2)c2ccc(F)cc2)CCO1 (configuration not stated),"inconclusive: 25.9 µM [inhibitor, single point]",
Cc1ccc(-c2cc(C(=O)N3CCN(C(=O)c4ccco4)CC3)[nH]n2)cc1C,,inactive: -0.446%
Cc1ccc(-c2cc(C(F)(F)F)n3ncc(C(=O)N4CCN(C)CC4)c3n2)cc1,active: 9.2 µM,
CCOC(=O)c1cnn(-c2ccccc2)c1NC(=O)CSc1nnc(-c2cccs2)n1CC,"inconclusive: 25.9 µM [inhibitor, partial curve, poor fit]",
COc1cccc(-n2nc(C(=O)N3CCN(Cc4ccccc4)CC3)c3ccccc3c2=O)c1,"inconclusive: 29.1 µM [inhibitor, single point]",
COc1ccc(NC(=O)c2ncn[nH]2)cc1,"inconclusive: 16.4 µM [activator, partial curve]",
Cn1c(/C(C#N)=C/c2ccc(O)cc2)nc2ccccc21,"inconclusive: 14.6 µM [activator, partial curve]",
O=C(NCC1CC1)Nc1ccccc1,"inconclusive: 9.2 µM [activator, partial curve]",
Cc1c(C(=O)Nc2ccncc2)sc2nc(-c3ccc(F)cc3)cn12,,inactive: -21.3%
O=C(NCC1CCCO1)c1ccc(COc2ccc(Cl)cc2)cc1 (configuration not stated),"inconclusive: 20.6 µM [inhibitor, single point]",

SMILES,Potency,"activity change, negative = inhibition"
COc1ccc(CCNC(=O)COC(=O)c2cc(=O)[nH]c3ccccc23)cc1,,inactive: 1.88%
Oc1ccc(/C=N/Nc2ccc(Cl)nn2)cc1O,"inconclusive: 14.6 µM [activator, partial curve]",
Nc1nc(CN2CCN(c3ccccc3)CC2)nc(N2CCCc3ccccc32)n1,,inactive: 3.58%
COc1ccc(/C=C/C(=O)OCC(=O)c2c(N)n(C)c(=O)n(C)c2=O)cc1,,inactive: -1.49%
CN1CCC(OC(=O)COc2ccc(F)cc2)CC1,"inconclusive: 1.16 µM [inhibitor, partial curve]",
CCc1ccc2c(CN3CCN(S(=O)(=O)c4cccs4)CC3)cc(=O)oc2c1,"inconclusive: 23.1 µM [inhibitor, single point]",
Cc1ccc2cc3cc(C(=O)N(CC(=O)NC4CCCC4)c4cccc(C)c4C)sc3nc2c1,"inconclusive: 22.4 µM [inhibitor, partial curve, poor fit]",
CCOc1ccc(-c2nc(CSc3nnc(N)s3)cs2)cc1OC,"inconclusive: 13 µM [activator, partial curve, poor fit]",
CCOC(=O)/C=c1\s/c(=C\c2c(OC)ccc3ccccc23)c(=O)n1CC(=O)NCC1CCCO1 (configuration not stated),"inconclusive: 11.6 µM [inhibitor, partial curve, poor fit]",
C[C@H]1C=C(C(=O)N2CCN(Cc3ccc4c(c3)OCO4)CC2)O[C@@H](OCc2ccc(CO)cc2)C1,"inconclusive: 13 µM [inhibitor, partial curve]",
O=C(Nc1cccc(-c2cn3c(n2)SCC3)c1)c1ccc2ccccc2n1,"inconclusive: 2.59 µM [activator, partial curve]",
COc1cc2ccccc2cc1C(=O)Nc1ccc(C)cn1,"inconclusive: 2.59 µM [activator, full curve]",
COc1cc2c(cc1OC)CN(C(=O)CSc1nc(N)c(C#N)cc1C#N)CC2,"inconclusive: 7.31 µM [inhibitor, single point]",
CC1CCCC(NC(=O)COC(=O)/C=C/c2ccco2)C1C (configuration not stated),"inconclusive: 11.2 µM [activator, partial curve, poor fit]",
CCCCC(=O)OCc1nc(N)nc(Nc2ccccc2C)n1,"inconclusive: 18.4 µM [activator, partial curve]",
CN(c1ccc(C(=O)NCc2ccccc2)cc1)S(C)(=O)=O,,inactive: 28%
O=S(=O)(Oc1ccccc1N1CCCCC1)c1ccccc1,,inactive: -6.57%
O=C(/C=C/c1ccc(F)cc1)NC(=S)Nc1ccccc1,,inactive: 7.08%
Cn1c(SCC(=O)Nc2ccc3nc(SCC(=O)NC4CC4)sc3c2)nnc1-c1ccccc1,"inconclusive: 29.1 µM [inhibitor, single point]",
COc1ccc([N+](=O)[O-])cc1NC(=O)Nc1ccccc1,"inconclusive: 10.3 µM [inhibitor, partial curve]",
Cc1occc1C(=O)Nc1cccc(C(=O)NCc2ccccc2)c1,"inconclusive: 20.6 µM [inhibitor, partial curve]",
CC1(C)CC(NC(=O)c2c(N)no[n+]2[O-])CC(C)(C)N1,,inactive: -8.64%
Cc1ccccc1CC(=O)N1CCN(S(=O)(=O)c2ccc(Cl)s2)CC1,"inconclusive: 20.6 µM [inhibitor, partial curve, poor fit]",

SMILES,Potency,"activity change, negative = inhibition"
COc1cccc(NC(=O)CCc2nnc3ccc(NCc4ccco4)nn23)c1,"inconclusive: 18.3 µM [activator, partial curve, poor fit]",
CCC(=O)Nc1ccc(NC(=O)c2cccc(OC)c2)nc1,"inconclusive: 13 µM [activator, partial curve]",
O=C(N/N=C/c1ccc(OCC(=O)N2CCCCC2)cc1)c1ccccc1O,"inconclusive: 18.4 µM [activator, single point]",
CCCCNC(=O)C1CC(c2cccc([N+](=O)[O-])c2)=NO1 (configuration not stated),"inconclusive: 20.6 µM [activator, partial curve]",
COc1ccccc1/C=C/C=N/NC(=O)c1ccco1,"inconclusive: 20.6 µM [activator, partial curve]",
COc1ccc2nc(NC(=O)C3CCCN3S(=O)(=O)c3ccc(C)cc3)sc2c1 (configuration not stated),active: 23.1 µM,
Cc1[nH]c2ccccc2c1/C=C(\C#N)C(=O)NCc1ccccc1,,inactive: -10.7%
COc1cccc(OC)c1C(=O)Nc1ccc(S(=O)(=O)N2CCCCC2)cc1,"inconclusive: 8.2 µM [inhibitor, partial curve, poor fit]",
Cc1ccc(CN2CCSc3ccc(C(=O)NCc4ccco4)cc32)cc1,"inconclusive: 20.6 µM [inhibitor, single point]",
COc1ccc(NC(=O)OCCn2c([N+](=O)[O-])cnc2C)cc1,,inactive: 15.1%
CCOC(=O)/C=C/C(=O)Nc1cc(S(=O)(=O)Nc2ccc(OC)cc2)ccc1N1CCOCC1,"inconclusive: 10.3 µM [inhibitor, single point]",
Cc1cc(Cl)c(S(=O)(=O)Nc2ccc3c(c2)OCCO3)cc1OCC(N)=O,"inconclusive: 18.4 µM [activator, partial curve]",
CCC(C(=O)c1ccc2ncccc2c1)c1ccccc1 (configuration not stated),,inactive: -16.1%
COc1ccc(C(CNC(=O)Cc2cccs2)N(C)C)cc1 (configuration not stated),,inactive: 11.4%
CN(C)S(=O)(=O)c1cccc(NC(=O)c2cc3ccccc3o2)c1,"inconclusive: 29.1 µM [inhibitor, single point]",
O=C(c1ccco1)N1CCc2ccccc21,"inconclusive: 18.3 µM [activator, partial curve]",
CNC(=O)c1nnsc1S(=O)(=O)c1ccc(Cl)cc1,"inconclusive: 32.6 µM [activator, partial curve, poor fit]",
CC(C)Cn1c2c(c(=O)[nH]c1=O)C(NS(=O)(=O)c1ccc(Cl)cc1)(C(F)(F)F)C(=O)N2 (configuration not stated),"inconclusive: 29.1 µM [inhibitor, single point]",
CCOC(=O)N1CCN(S(=O)(=O)CCNC(=O)c2cccc(OC)c2)CC1,"inconclusive: 25.9 µM [activator, single point]",
CCC(CO)Oc1cc(NC(=O)c2cccc(F)c2)c2ncn(C(C)C)c2c1 (configuration not stated),"inconclusive: 25.9 µM [inhibitor, partial curve]",
COc1ccc(/C=C/C(=O)NCCOc2ccc(C)cc2)cc1,"inconclusive: 0.651 µM [inhibitor, single point]",

# Rewritten with tabs: 3 of the compounds above.
SMILES	Potency	activity change, negative = inhibition
CN(C)S(=O)(=O)c1cccc(NC(=O)c2cc3ccccc3o2)c1	inconclusive: 29.1 µM [inhibitor, single point]	
O=C(c1ccco1)N1CCc2ccccc21	inconclusive: 18.3 µM [activator, partial curve]	
CNC(=O)c1nnsc1S(=O)(=O)c1ccc(Cl)cc1	inconclusive: 32.6 µM [activator, partial curve, poor fit]	

# Retrieved by compound from above (two):
SMILES,Potency,"activity change, negative = inhibition"
CNC(=O)c1nnsc1S(=O)(=O)c1ccc(Cl)cc1,"inconclusive: 32.6 µM [activator, partial curve, poor fit]",
CCC(C(=O)c1ccc2ncccc2c1)c1ccccc1 (configuration not stated),,inactive: -16.1%
